# Experimental data published in PMC6978800, “FAMIN Is a Multifunctional Purine Enzyme Enabling the Purine Nucleotide Cycle” (Cell, 2020).
# These are yes or no findings as the source states them, for the method shown.
# B1: recombinant human FAMIN (FAMIN^254I) (enzyme, UniProt Q8IV20 1-430)
# chain: MAEAVLIDLFGLKLNSQKNCHQTLLKTLNAVQYHHAAKAKFLCIMCCSNISYERDGEQDNCEIETSNGLSALLEEFEIVSCPSMAATLYTIKQKIDEKNLSSIKVIVPRHRKTLMKAFIDQLFTDVYNFEFEDLQVTFRGGLFKQSIEINVITAQELRGIQNEIETFLRSLPALRGKLTIITSSLIPDIFIHGFTTRTGGISYIPTLSSFNLFSSSKRRDPKVVVQENLRRLANAAGFNVEKFYRIKTHHSNDIWIMGRKEPDSYDGITTNQRGVTIAALGADCIPIVFADPVKKACGVAHAGWKGTLLGVAMATVNAMIAEYGCSLEDIVVVLGPSVGPCCFTLPRESAEAFHNLHPACVQLFDSPNPCIDIRKATRILLEQGGILPQNIQDQNQDLNLCTSCHPDKFFSHVRDGLNFGTQIGFISIKE
# Target: recombinant human FAMIN (FAMIN^254I) (human) (UniProt Q8IV20)
# Assay: SEC; Superdex 200 Increase 10/300 of Strep-Tactin purified FAMIN after TEV cleavage of the Strep-tag; fractions checked by Coomassie SDS-PAGE; both purified
binder,measurement,value
B1,binding,no binding
